Data source: PubChem BioAssay AID1259405 (NCATS, 2018)

- Aim: 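Silenced genes that increase secreted GFP made by CHO cells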 (primary screen)
- Cell system: Chinese hamster CHO-K1 ovary cells with stable secreted eGFP expression
- Knock-down reagent: single siRNA against mouse genes, 0.8 pmol siRNA per well (2 µl of 400 nM stock)
- Time to read-out: 3 days
- Measured: 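Per-well intracellular GFP measured by laser scanning cytometry, plus viability from ATP luminescence, each relative to plate median of non-targeting control wells, in %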
- Scale: GFP, % of control: higher = more GFP per well, higher productivity; viability (ATP), % of control: higher = more viable cells (more ATP)
- Hit rule: 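a knock-down is called active if GFP reaches 120% or more of non-targeting control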
This is one part, drawn at random, of about 50,000 reagents. In the full data, about 4,000 (8%) got an active call. 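Mouse siRNA library applied to hamster cells; one well for each siRNA.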 Reagents against one gene are numbered here. Reagent sequences are not shown.

| gene symbol | siRNA no. | GFP, % of control | viability (ATP), % of control | outcome |
| --- | --- | --- | --- | --- |
| Ugt1a6a (GeneID 94284) | 1 | 94.5 | 104 | inactive |
| Ugt1a6a (GeneID 94284) | 2 | 74.7 | 95.2 | inactive |
| Ugt1a6a (GeneID 94284) | 3 | 70.8 | 69.8 | inactive |
| Ace (GeneID 11421) | 1 | 79.6 | 57.5 | inactive |
| Ace (GeneID 11421) | 2 | 55.7 | 42.3 | inactive |
| Ace (GeneID 11421) | 3 | 94.2 | 59.3 | inactive |
| Pla2g2e (GeneID 26970) | 1 | 97.8 | 77.3 | inactive |
| Pla2g2e (GeneID 26970) | 2 | 77 | 55.2 | inactive |
| Pla2g2e (GeneID 26970) | 3 | 61.4 | 62.1 | inactive |
| Abcf1 (GeneID 224742) | 1 | 41 | 33.1 | inactive |
| Abcf1 (GeneID 224742) | 2 | 79.4 | 63.4 | inactive |
| Abcf1 (GeneID 224742) | 3 | 86.9 | 84.7 | inactive |
| Nog (GeneID 18121) | 1 | 35.4 | 37.6 | inactive |
| Nog (GeneID 18121) | 2 | 103 | 86.7 | inactive |
| Nog (GeneID 18121) | 3 | 69.9 | 61.6 | inactive |
| Zfp235 (GeneID 56525) | 1 | 112 | 122 | inactive |
| Zfp235 (GeneID 56525) | 2 | 71.5 | 45.5 | inactive |
| Zfp235 (GeneID 56525) | 3 | 48.1 | 90 | inactive |
| Oog4 (GeneID 242737) | 1 | 55 | 35.6 | inactive |
| Oog4 (GeneID 242737) | 2 | 72.9 | 50.6 | inactive |
| Oog4 (GeneID 242737) | 3 | 98.9 | 85.8 | inactive |
| Cacna2d3 (GeneID 12294) | 1 | 81 | 59.1 | inactive |
| Cacna2d3 (GeneID 12294) | 2 | 86.3 | 74.6 | inactive |
| Cacna2d3 (GeneID 12294) | 3 | 38.3 | 46.1 | inactive |
| Slc18a1 (GeneID 110877) | 1 | 91.6 | 68.2 | inactive |
| Slc18a1 (GeneID 110877) | 2 | 59.9 | 53.3 | inactive |
| Slc18a1 (GeneID 110877) | 3 | 84.6 | 79.1 | inactive |
| Apln (GeneID 30878) | 1 | 73.8 | 68.3 | inactive |
| Apln (GeneID 30878) | 2 | 59.4 | 55.2 | inactive |
| Apln (GeneID 30878) | 3 | 85.4 | 72.3 | inactive |
| Camkk2 (GeneID 207565) | 1 | 71.8 | 57.2 | inactive |
| Camkk2 (GeneID 207565) | 2 | 54.6 | 58.9 | inactive |
| Camkk2 (GeneID 207565) | 3 | 92.8 | 71.3 | inactive |
| Yju2b (GeneID 67736) | 1 | 69.8 | 124 | inactive |
| Yju2b (GeneID 67736) | 2 | 72.8 | 82.5 | inactive |
| Yju2b (GeneID 67736) | 3 | 103 | 100 | inactive |
| Rab15 (GeneID 104886) | 1 | 116 | 32.8 | inactive |
| Rab15 (GeneID 104886) | 2 | 48.2 | 60.4 | inactive |
| Rab15 (GeneID 104886) | 3 | 84.8 | 78.4 | inactive |
| Cenpa (GeneID 12615) | 1 | 70.9 | 86.6 | inactive |
| Cenpa (GeneID 12615) | 2 | 63.8 | 78.9 | inactive |
| Cenpa (GeneID 12615) | 3 | 55.4 | 49.9 | inactive |
| Riok3 (GeneID 66878) | 1 | 58.4 | 69.7 | inactive |
| Or6b13 (GeneID 258055) | 1 | 84 | 49.8 | inactive |
| Or6b13 (GeneID 258055) | 2 | 104 | 73.8 | inactive |
| Or6b13 (GeneID 258055) | 3 | 35.9 | 65.8 | inactive |
| Zfp366 (GeneID 238803) | 1 | 114 | 131 | inactive |
| Zfp366 (GeneID 238803) | 2 | 80.2 | 101 | inactive |
| Zfp366 (GeneID 238803) | 3 | 90.5 | 123 | inactive |
| Stx12 (GeneID 100226) | 1 | 72.1 | 67.4 | inactive |
| Stx12 (GeneID 100226) | 2 | 43.8 | 45.4 | inactive |
| Stx12 (GeneID 100226) | 3 | 95.4 | 58.8 | inactive |
| Coro6 (GeneID 216961) | 1 | 53.8 | 51.9 | inactive |
| Coro6 (GeneID 216961) | 2 | 99.1 | 109 | inactive |
| Coro6 (GeneID 216961) | 3 | 74 | 66.9 | inactive |
| Mettl6 (GeneID 67011) | 1 | 72.8 | 74 | inactive |
| Mettl6 (GeneID 67011) | 2 | 77.8 | 75.5 | inactive |
| Mettl6 (GeneID 67011) | 3 | 74.4 | 62.2 | inactive |
| Reln (GeneID 19699) | 1 | 106 | 97 | inactive |
| Reln (GeneID 19699) | 2 | 64.2 | 59.2 | inactive |
| Reln (GeneID 19699) | 3 | 82.3 | 84.7 | inactive |
| Ociad2 (GeneID 433904) | 1 | 94.5 | 76.2 | inactive |
| Ociad2 (GeneID 433904) | 2 | 74.8 | 104 | inactive |
| Ociad2 (GeneID 433904) | 3 | 86.2 | 55.1 | inactive |
| Tgoln2 (GeneID 22135) | 1 | 81.3 | 63.5 | inactive |
| Tgoln2 (GeneID 22135) | 2 | 120 | 84.8 | active |
| Tgoln2 (GeneID 22135) | 3 | 77.8 | 63.4 | inactive |
| 1110059G10Rik (GeneID 66202) | 1 | 71.6 | 95.2 | inactive |
| 1110059G10Rik (GeneID 66202) | 2 | 60.5 | 81.4 | inactive |
| 1110059G10Rik (GeneID 66202) | 3 | 83.4 | 90.6 | inactive |
| Ppm1f (GeneID 68606) | 1 | 87.1 | 75.6 | inactive |
| Ppm1f (GeneID 68606) | 2 | 78.6 | 80.2 | inactive |
| Ppm1f (GeneID 68606) | 3 | 99.1 | 80.5 | inactive |
| Ednrb (GeneID 13618) | 1 | 82.7 | 78.4 | inactive |
| Ednrb (GeneID 13618) | 2 | 85.5 | 86.4 | inactive |
| Ednrb (GeneID 13618) | 3 | 34.9 | 69.8 | inactive |
| Hcst (GeneID 23900) | 1 | 55.6 | 75.3 | inactive |
| Hcst (GeneID 23900) | 2 | 81.6 | 106 | inactive |
| Hcst (GeneID 23900) | 3 | 146 | 86.1 | active |
| Rpl30 (GeneID 19946) | 1 | 67.8 | 51.4 | inactive |
| Rpl30 (GeneID 19946) | 2 | 58.5 | 32.4 | inactive |
| Rpl30 (GeneID 19946) | 3 | 71.2 | 65 | inactive |
| Coq3 (GeneID 230027) | 1 | 106 | 81.8 | inactive |
| Coq3 (GeneID 230027) | 2 | 85.4 | 114 | inactive |
| Coq3 (GeneID 230027) | 3 | 115 | 92.5 | inactive |
| Rpusd4 (GeneID 71989) | 1 | 50.6 | 49.3 | inactive |
| Rpusd4 (GeneID 71989) | 2 | 94.5 | 105 | inactive |
| Rpusd4 (GeneID 71989) | 3 | 83.5 | 88.7 | inactive |
| Phox2a (GeneID 11859) | 1 | 125 | 88 | active |
| Phox2a (GeneID 11859) | 2 | 96.4 | 79.6 | inactive |
| Myc (GeneID 17869) | 1 | 113 | 101 | inactive |
| Myc (GeneID 17869) | 2 | 85.6 | 56.8 | inactive |
| Myc (GeneID 17869) | 3 | 95.4 | 78 | inactive |
| Ahsa1 (GeneID 217737) | 1 | 43.6 | 39.5 | inactive |
| Ahsa1 (GeneID 217737) | 2 | 78.3 | 79.7 | inactive |
| Ahsa1 (GeneID 217737) | 3 | 75.7 | 103 | inactive |
| Henmt1 (GeneID 66715) | 1 | 52.7 | 25.8 | inactive |
| Henmt1 (GeneID 66715) | 2 | 86.3 | 65.9 | inactive |
| Henmt1 (GeneID 66715) | 3 | 92.4 | 95.3 | inactive |
| Dnajc27 (GeneID 217378) | 1 | 85.3 | 91.7 | inactive |
| Dnajc27 (GeneID 217378) | 2 | 74 | 59.1 | inactive |
| Dnajc27 (GeneID 217378) | 3 | 116 | 62.5 | inactive |
| Gjb4 (GeneID 14621) | 1 | 51.4 | 73 | inactive |
| Gjb4 (GeneID 14621) | 2 | 131 | 106 | active |
| Gjb4 (GeneID 14621) | 3 | 90.7 | 138 | inactive |
| Stpg2 (GeneID 381476) | 1 | 62.8 | 59.9 | inactive |
| Stpg2 (GeneID 381476) | 2 | 51.6 | 67.7 | inactive |
| Stpg2 (GeneID 381476) | 3 | 48.7 | 71.7 | inactive |
